Consider two molecules from paper doi:10.1101/2025.07.25.666749.

Experiment [1] concerns the target T1, UltraID_ZFP36L1 (UltraID fused to the N-terminus of ZFP36L1) (UniProt Q07352).
T1 sequence: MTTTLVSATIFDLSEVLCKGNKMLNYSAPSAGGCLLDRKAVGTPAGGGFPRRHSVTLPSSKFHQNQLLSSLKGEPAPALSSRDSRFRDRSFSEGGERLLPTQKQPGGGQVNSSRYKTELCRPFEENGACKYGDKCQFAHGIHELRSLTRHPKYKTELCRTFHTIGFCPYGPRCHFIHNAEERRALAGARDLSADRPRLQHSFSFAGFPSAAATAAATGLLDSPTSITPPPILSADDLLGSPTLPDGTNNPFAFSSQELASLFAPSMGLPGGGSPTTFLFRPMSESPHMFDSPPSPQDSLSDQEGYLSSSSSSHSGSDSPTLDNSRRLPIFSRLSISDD
Put plainly: proximity labelling.

The target in experiment [2] is T1, UltraID_ZFP36L1 (UltraID fused to the N-terminus of ZFP36L1). Put plainly: proximity labelling. The source holds these as a separate data set.

Where two headings read alike, the source gives them in different places. Results are given in words; binding and its absence hold for the method and conditions named. In cells and extracts the contact can be indirect. Here binding means that the protein was enriched with, or labelled near, the bait; the list need not be complete. Where a sequence is shown, tags or fusion partners need not be part of it.

B1: UBAP2 (protein, UniProt Q5T6F2 1-1119)
chain: MMTSVSSDHCRGAREKPQISAAQSTQPQKQVVQATAEQMRLAQVIFDKNDSDFEAKVKQLMEVTGKNQDECIVALHDCNGDVNKAINILLEGNSDTTSWETVGCKKKNFAKENSENKENREKKSEKESSRGRGNNNRKGRGGNRGREFRGEENGIDCNQVDKPSDRGKRARGRGFGRGRGRGAGRFSTQGMGTFNPADYSDSTSTDVCGTKLVVWEAAQNGADEGTELASNTHNIAQDLSNKSSYGLKGAWKNSVEEWTTEDWTEDLSETKVFTASSAPAENHILPGQSIDLVALLQKPVPHSQASEANSFETSQQQGFGQALVFTNSQHNNQMAPGTGSSTAVNSCSPQSLSSVLGSGFGELAPPKMANITSSQILDQLKAPSLGQFTTTPSTQQNSTSHPTTTTSWDLKPPTSQSSVLSHLDFKSQPEPSPVLSQLSQRQQHQSQAVTVPPPGLESFPSQAKLRESTPGDSPSTVNKLLQLPSTTIENISVSVHQPQPKHIKLAKRRIPPASKIPASAVEMPGSADVTGLNVQFGALEFGSEPSLSEFGSAPSSENSNQIPISLYSKSLSEPLNTSLSMTSAVQNSTYTTSVITSCSLTSSSLNSASPVAMSSSYDQSSVHNRIPYQSPVSSSESAPGTIMNGHGGGRSQQTLDTPKTTGPPSALPSVSSLPSTTSCTALLPSTSQHTGDLTSSPLSQLSSSLSSHQSSLSAHAALSSSTSHTHASVESASSHQSSATFSTAATSVSSSASSGASLSSSMNTANSLCLGGTPASASSSSSRAAPLVTSGKAPPNLPQGVPPLLHNQYLVGPGGLLPAYPIYGYDELQMLQSRLPVDYYGIPFAAPTALASRDGSLANNPYPGDVTKFGRGDSASPAPATTPAQPQQSQSQTHHTAQQPFVNPALPPGYSYTGLPYYTGMPSAFQYGPTMFVPPASAKQHGVNLSTPTPPFQQASGYGQHGYSTGYDDLTQGTAAGDYSKGGYAGSSQAPNKSAGSGPGKGVSVSSSTTGLPDMTGSVYNKTQTFDKQGFHAGTPPPFSLPSVLGSTGPLASGAAPGYAPPPFLHILPAHQQPHSQLLHHHLPQDAQSGSGQRSQPSSLQPKSQASKPAYGNSPYWTN
For the molecule B1, the binding entry in experiment [1] and in experiment [2] was “binds” in each case.

B2: DCP1B (protein, UniProt Q8IZD4 1-617)
chain: MAAVAAGGLVGKGRDISLAALQRHDPYINRIVDVASQVALYTFGHRANEWEKTDVEGTLFVYTRSASPKHGFTIMNRLSMENRTEPITKDLDFQLQDPFLLYRNARLSIYGIWFYDKEECQRIAELMKNLTQYEQLKAHQGTGAGISPVILNSGEGKEVDILRMLIKAKDEYTKCKTCSEPKKITSSSAIYDNPNLIKPIPVKPSENQQQRIPQPNQTLDPEPQHLSLTALFGKQDKATCQETVEPPQTLHQQQQQQQQQQEKLPIRQGVVRSLSYEEPRRHSPPIEKQLCPAIQKLMVRSADLHPLSELPENRPCENGSTHSAGEFFTGPVQPGSPHNIGTSRGVQNASRTQNLFEKLQSTPGAANKCDPSTPAPASSAALNRSRAPTSVTPVAPGKGLAQPPQAYFNGSLPPQTVGHQAHGREQSTLPRQTLPISGSQTGSSGVISPQELLKKLQIVQQEQQLHASNRPALAAKFPVLAQSSGTGKPLESWINKTPNTEQQTPLFQVISPQRIPATAAPSLLMSPMVFAQPTSVPPKERESGLLPVGGQEPPAAATSLLLPIQSPEPSVITSSPLTKLQLQEALLYLIQNDDNFLNIIYEAYLFSMTQAAMKKTM
In the case of B2, the binding entry in experiment [1] and in experiment [2] was “binds” throughout.
